Publication PMC3232247
Read-outs that look alike come from different tables or passages of the source. No constants are given. Whether binding was seen depends on the method and setting. Some entries that bind do so weakly or less than the wild type. For some assays here: Sequences can lack the tags named with a protein. Values belong to the molecule of their own block, whether it stands above or below them.

Protein sequences, listed by entry. Tags and fused reporters are not part of them. Residues count along the entry.
UniProt P63165, residues 1-97: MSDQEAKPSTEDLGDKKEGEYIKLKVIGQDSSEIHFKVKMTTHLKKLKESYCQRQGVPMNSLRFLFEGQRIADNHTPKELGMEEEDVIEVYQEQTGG
UniProt P55854, residues 1-92: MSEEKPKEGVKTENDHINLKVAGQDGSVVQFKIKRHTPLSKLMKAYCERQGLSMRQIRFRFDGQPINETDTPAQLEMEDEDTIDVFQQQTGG
UniProt P04897: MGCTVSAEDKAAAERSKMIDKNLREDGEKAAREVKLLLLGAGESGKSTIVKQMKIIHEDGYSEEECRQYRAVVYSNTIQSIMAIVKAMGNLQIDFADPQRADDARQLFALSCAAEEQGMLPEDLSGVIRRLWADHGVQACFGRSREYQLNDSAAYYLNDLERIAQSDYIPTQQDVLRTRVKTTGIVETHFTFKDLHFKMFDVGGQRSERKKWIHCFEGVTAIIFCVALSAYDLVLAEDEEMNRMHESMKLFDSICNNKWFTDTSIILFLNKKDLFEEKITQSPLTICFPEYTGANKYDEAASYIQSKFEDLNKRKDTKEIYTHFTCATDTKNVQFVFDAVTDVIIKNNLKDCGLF

Experiments:
[1] = molecular target: SUMO1 (Small Ubiquitin-like MOdifier 1) (UniProt P63165); assay: pull-down; SUMO1-, SUMO2- or SUMO3-agarose incubated with the recombinant protein for 2 h at room temperature in 50 mM HEPES pH 8.0, 1 mM EDTA, 1 mM DTT, 0.05% C12E10; washed beads boiled, immunoblot; both purified
[2] = molecular target: SUMO3 (UniProt P55854); assay: as above
[3] = molecular target: T1, RGSZ2 (regulator of G protein signaling 17), recombinant, GST-free (murine) (UniProt Q9QZB0); assay: co-IP; single turnover GTPase reaction of GTP-loaded Gαi with RGSZ2 and increasing concentrations of free SUMO1; at 60 s RGSZ2 immunoprecipitated (CT antibody), Western blot with anti-Gαi antibody; both purified
T1 sequence: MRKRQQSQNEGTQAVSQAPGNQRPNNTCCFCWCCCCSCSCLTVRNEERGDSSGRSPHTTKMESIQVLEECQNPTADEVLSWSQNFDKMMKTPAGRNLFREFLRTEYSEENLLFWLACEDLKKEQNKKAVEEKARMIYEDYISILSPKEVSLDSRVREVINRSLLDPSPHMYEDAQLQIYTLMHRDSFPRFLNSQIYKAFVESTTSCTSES

[4] = molecular target: SUMO1 (Small Ubiquitin-like MOdifier 1) (UniProt P63165); assay: pull-down; SUMO1-, SUMO2- or SUMO3-agarose incubated with the recombinant protein for 2 h at room temperature in 50 mM HEPES pH 8.0, 1 mM EDTA, 1 mM DTT, 0.05% C12E10; washed beads boiled, immunoblot; both purified; remark: listed apart in the source
[5] = molecular target: SUMO3 (UniProt P55854); assay: as above; remark: listed apart in the source

binding [1]: no binding
binding [2]: no binding
binding [3]: binds
Molecule: Gαi2 subunit (from UniProt P04897 1-355)

binding [4]: binds
binding [5]: binds
B1: RGSZ2 (regulator of G protein signaling 17), recombinant, GST-free (protein, UniProt Q9QZB0 1-210)
chain: T1 sequence
